These are yes or no findings as the source states them, for the method shown. Binding seen in cells or lysates may run through a third protein. A yes stands for co-enrichment or nearness to the bait. Other partners may have been found. Tags and fused reporters may be left off the sequences shown.

By UniProt entry, the sequences of proteins in these tests, tags left out.
UniProt O15047: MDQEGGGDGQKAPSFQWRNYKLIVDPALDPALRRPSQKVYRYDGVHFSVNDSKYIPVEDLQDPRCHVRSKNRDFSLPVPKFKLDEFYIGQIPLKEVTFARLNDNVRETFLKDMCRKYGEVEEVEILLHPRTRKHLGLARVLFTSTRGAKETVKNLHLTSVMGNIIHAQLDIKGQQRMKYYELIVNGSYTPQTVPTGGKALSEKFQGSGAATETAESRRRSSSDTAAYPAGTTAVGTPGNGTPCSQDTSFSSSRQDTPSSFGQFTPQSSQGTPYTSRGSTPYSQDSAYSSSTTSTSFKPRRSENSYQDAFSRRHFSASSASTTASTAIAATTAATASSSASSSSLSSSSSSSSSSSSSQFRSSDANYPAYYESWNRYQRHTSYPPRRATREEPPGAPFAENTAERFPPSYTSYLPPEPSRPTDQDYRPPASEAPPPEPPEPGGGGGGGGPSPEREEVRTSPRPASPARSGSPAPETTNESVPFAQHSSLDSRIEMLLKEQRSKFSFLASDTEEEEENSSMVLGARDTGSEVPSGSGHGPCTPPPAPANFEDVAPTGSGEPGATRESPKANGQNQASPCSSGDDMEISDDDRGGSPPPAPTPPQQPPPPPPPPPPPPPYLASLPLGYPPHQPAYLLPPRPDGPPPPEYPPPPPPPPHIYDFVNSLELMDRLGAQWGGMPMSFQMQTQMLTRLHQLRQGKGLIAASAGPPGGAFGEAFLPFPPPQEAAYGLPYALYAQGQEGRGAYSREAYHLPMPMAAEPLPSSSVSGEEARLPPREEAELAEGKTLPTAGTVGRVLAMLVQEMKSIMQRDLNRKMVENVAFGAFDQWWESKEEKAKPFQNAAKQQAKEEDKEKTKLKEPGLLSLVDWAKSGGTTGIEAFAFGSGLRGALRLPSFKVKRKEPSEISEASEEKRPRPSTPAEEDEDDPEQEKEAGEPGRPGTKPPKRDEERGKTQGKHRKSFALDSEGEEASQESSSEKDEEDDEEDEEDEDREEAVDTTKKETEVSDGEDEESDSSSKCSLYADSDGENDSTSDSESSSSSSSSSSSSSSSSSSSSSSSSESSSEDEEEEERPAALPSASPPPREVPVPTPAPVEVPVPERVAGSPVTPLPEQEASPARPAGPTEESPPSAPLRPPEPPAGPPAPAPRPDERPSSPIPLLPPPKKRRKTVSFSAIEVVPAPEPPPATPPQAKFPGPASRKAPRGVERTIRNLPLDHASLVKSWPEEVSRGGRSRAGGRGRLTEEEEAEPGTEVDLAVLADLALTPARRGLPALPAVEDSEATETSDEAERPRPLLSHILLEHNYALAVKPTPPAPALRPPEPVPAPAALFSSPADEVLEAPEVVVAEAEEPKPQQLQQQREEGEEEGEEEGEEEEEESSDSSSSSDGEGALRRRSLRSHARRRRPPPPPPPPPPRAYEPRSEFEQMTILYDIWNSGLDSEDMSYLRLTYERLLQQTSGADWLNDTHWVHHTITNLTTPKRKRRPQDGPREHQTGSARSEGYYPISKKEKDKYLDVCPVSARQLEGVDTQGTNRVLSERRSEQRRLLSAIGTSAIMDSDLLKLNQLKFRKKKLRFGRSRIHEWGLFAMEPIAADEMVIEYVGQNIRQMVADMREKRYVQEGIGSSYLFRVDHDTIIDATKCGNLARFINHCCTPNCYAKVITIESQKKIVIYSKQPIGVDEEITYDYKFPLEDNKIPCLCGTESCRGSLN

The assay deals with T1, HMGXB4^K317R/K320R-HA (HMGXB4^SUMO-), SILAC pull-down (human) (UniProt Q9UGU5).
T1 sequence: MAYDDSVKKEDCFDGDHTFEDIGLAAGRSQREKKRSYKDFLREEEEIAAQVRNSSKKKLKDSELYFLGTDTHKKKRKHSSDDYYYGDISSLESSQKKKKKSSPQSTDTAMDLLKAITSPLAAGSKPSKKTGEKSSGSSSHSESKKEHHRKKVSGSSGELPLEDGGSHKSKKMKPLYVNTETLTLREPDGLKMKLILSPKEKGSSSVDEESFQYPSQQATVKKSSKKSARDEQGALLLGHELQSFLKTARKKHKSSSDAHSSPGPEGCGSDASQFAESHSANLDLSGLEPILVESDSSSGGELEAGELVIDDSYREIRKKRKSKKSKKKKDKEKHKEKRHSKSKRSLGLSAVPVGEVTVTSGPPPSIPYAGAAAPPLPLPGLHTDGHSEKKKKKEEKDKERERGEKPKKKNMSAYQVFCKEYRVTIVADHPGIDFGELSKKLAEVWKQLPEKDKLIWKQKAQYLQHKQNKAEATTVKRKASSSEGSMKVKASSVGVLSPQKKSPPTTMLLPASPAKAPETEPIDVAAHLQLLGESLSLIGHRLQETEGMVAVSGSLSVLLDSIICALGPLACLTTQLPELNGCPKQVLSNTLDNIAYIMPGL
In words: affinity purification with mass spectrometry.

“SETD1A (from UniProt O15047 1-1707) (enzyme)”: the binding result is reported as “binds”.

These data come from article doi:10.1101/2020.06.15.145656.
